Publication PMC5105131
No constants are given. Whether binding was seen depends on the method and setting. In cells and extracts the contact can be indirect. Here binding means that the protein was enriched with, or labelled near, the bait; the list need not be complete.

By UniProt entry, the sequences of proteins in these tests, tags left out.
UniProt Q8IUF8: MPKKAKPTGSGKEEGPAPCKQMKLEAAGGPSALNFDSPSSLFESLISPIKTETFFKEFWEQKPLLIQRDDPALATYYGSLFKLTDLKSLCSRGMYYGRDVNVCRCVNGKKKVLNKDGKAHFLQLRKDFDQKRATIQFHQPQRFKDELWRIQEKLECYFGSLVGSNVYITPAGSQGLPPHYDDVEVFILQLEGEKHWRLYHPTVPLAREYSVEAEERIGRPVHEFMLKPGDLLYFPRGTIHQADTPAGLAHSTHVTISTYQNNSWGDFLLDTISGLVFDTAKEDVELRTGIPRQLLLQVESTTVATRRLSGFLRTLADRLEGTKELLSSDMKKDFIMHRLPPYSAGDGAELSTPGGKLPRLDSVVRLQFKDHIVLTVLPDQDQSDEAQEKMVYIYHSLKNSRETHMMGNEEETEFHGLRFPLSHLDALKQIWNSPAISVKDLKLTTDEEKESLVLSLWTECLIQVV
UniProt P01106: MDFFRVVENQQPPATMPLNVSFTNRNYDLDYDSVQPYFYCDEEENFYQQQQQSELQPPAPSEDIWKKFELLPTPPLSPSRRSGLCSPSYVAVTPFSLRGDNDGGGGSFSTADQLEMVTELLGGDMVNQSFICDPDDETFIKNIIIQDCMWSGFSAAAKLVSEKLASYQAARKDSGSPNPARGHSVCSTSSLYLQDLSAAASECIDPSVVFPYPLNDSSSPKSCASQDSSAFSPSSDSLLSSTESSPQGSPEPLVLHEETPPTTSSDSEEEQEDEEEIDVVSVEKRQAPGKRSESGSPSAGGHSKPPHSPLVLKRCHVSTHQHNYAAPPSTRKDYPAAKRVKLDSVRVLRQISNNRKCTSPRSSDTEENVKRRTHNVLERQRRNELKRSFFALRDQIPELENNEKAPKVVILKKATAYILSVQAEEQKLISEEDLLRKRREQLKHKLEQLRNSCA
UniProt Q92878: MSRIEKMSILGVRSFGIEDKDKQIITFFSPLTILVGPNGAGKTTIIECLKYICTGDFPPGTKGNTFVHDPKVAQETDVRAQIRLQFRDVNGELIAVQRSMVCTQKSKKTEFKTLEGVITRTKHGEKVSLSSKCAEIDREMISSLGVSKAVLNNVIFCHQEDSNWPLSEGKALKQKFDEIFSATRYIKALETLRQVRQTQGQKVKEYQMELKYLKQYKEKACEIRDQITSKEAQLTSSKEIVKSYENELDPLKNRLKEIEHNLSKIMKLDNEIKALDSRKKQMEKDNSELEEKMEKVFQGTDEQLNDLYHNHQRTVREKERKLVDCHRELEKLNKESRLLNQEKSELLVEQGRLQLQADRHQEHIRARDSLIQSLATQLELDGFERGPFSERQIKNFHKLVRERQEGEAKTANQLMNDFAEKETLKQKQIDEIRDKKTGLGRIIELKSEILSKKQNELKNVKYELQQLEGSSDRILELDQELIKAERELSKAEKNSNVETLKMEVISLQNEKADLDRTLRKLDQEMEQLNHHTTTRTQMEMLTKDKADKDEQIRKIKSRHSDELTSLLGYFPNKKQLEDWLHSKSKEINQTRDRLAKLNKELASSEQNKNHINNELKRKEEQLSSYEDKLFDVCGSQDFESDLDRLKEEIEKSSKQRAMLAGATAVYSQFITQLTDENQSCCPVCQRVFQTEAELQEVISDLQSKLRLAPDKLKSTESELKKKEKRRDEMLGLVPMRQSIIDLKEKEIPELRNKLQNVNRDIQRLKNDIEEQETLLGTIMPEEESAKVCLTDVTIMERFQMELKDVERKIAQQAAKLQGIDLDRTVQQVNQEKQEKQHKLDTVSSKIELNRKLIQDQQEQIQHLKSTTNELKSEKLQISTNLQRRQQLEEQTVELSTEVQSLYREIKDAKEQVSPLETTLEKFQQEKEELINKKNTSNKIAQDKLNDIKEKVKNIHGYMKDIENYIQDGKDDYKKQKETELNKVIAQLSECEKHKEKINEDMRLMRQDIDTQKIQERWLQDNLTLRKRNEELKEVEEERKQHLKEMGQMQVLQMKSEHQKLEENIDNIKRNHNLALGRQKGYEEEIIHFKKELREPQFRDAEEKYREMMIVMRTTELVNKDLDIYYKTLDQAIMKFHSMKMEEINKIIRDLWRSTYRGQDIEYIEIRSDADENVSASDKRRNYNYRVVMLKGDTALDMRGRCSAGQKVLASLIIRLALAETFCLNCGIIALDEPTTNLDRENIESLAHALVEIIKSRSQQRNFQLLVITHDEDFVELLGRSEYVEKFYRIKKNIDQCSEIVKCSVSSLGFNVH
UniProt P13010: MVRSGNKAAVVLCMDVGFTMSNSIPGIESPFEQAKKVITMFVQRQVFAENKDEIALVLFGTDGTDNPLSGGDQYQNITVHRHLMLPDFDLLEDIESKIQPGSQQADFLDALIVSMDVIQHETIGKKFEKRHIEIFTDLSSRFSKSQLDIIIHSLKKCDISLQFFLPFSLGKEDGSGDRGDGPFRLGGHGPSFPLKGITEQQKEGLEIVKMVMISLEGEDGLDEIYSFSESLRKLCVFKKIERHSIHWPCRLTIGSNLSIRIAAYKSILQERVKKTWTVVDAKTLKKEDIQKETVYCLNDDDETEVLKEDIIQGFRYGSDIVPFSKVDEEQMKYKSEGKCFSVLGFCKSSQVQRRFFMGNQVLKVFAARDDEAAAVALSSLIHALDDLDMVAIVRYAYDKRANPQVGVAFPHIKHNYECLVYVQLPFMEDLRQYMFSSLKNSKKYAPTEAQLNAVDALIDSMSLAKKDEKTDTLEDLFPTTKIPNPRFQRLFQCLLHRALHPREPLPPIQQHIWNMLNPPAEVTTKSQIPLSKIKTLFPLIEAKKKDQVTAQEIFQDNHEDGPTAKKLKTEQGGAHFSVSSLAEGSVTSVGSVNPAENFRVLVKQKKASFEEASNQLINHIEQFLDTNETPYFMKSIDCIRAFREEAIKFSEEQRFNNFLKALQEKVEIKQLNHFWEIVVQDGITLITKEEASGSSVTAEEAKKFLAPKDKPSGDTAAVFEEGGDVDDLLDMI
UniProt P12956: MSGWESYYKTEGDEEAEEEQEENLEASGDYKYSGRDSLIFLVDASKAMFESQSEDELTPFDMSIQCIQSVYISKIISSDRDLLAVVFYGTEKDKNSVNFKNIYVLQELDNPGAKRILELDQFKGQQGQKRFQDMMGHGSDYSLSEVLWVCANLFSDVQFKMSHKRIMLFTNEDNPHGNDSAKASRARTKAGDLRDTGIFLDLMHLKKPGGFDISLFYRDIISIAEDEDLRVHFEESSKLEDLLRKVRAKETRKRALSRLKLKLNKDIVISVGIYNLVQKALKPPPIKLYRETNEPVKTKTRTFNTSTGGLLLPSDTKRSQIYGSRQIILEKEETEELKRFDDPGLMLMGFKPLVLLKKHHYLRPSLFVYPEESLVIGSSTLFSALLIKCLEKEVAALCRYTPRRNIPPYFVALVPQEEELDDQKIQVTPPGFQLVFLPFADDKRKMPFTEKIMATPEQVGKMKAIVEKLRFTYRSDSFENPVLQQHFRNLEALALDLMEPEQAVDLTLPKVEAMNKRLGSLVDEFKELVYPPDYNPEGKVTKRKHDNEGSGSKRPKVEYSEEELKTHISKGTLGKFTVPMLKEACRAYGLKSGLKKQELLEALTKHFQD

Experiments:
[1] = molecular target: mdig (mineral dust-induced gene) (human (endogenous in NCI-H929 and MM1S)) (UniProt Q8IUF8); assay: affinity purification with mass spectrometry; co-IP of endogenous mdig or c-myc from NCI-H929 cells, 1D-SDS-PAGE, in-gel digestion, HPLC-ESI-MS/MS, MaxQuant
[2] = molecular target: c-myc (human (endogenous in NCI-H929 and MM1S)) (UniProt P01106); assay: as above

Row | Substance | binding [1] | binding [2]
1 | Rad50 (from UniProt Q92878 1-1312) | binds | –
2 | XRCC5 (from UniProt P13010 1-732) | binds | –
3 | XRCC6 (from UniProt P12956 1-609) | binds | –
4 | mdig (mineral dust-induced gene) (from UniProt Q8IUF8 1-465) | – | binds
